Consider two compounds from patent US7686852B2, “Monoazo dyes” (Clariant Finance (BVI) Limited, priority 2004, dated 2010).

Each structure is given as a SMILES string. Marks after values point to notes of the source that are not given here.

The nature of series [1]: Perspiration fastness ISO105-E04, staining of adjacent fabric. Conditions: Nylsuisse-Tricot dyed per Use Example A to 3×1/1 Standard Depth=1.80%; alkaline perspiration pH 8; Grey Scale staining ISO 105-A03, ratings 5 to 1. As to the method:
(§1) A Nylsuisse-Tricot was dyed according to Use Example A (see below) to 3×1/1 Standard Depth=1.80% and the following tests have been performed:
The test specimen and adjacent fabrics were thoroughly wet out in an alkaline perspiration solution containing:
0.5 g 1-histidine monohydrochloride monohydrate
(§2) 2.5 g disodium hydrogen phosphate dihydrate (adjust to pH 8 with 1 n caustic soda) per litre at room temperature and liquor ratio 50:1 and left for 30 min, the excess solution was poured off, the test specimen were placed between 2 glass plates under a pressure of 12.5 kPa (5 kg/40 cm2) and placed in a drying oven for 4 h at 37° C. Without rinsing, the samples were hung to dry in warm air at max. 60° C. Domestic Laundering ISO 105-C06/B2S, 50° C. and Domestic Laundering ISO 105-C06/B2S, 60° C.:
(§3) Evaluation According to Grey Scale Staining ISO 105-A03
(§4) For the evaluation a 5-step Grey Scale was used consisting of 5 pairs of swatches of grey and white cloth which illustrate the perceived colour differences corresponding to fastness ratings 5, 4, 3, 2 and 1. The fastness assessment or rating corresponds to that number of the Grey Scale which is closest to the perceived colour distance between the original adjacent fabric and the treated adjacent fabric. (midway between two adjacent steps=intermediate rating e.g. 2-3)

Series [2] can be described thus: Domestic laundering fastness ISO 105-C06/B2S, staining of adjacent fabric. Conditions: Nylsuisse-Tricot dyed to 3×1/1 Standard Depth=1.80%, Grey Scale staining ISO 105-A03. As to the method: as §1, §2
The test specimen is placed with adjacent undyed fabric in a steel beaker (550 ml volume) and treated with detergent solution (4 g/l ECE phosphate-containing Test Detergent B)) and 1 g/l sodium perborate tetrahydrate, 25 steel balls for 30 minutes in the Launder-Ometer (the total amount of liquor was 150 ml). The sample was rinsed and hang to dry in warm air at max. 60° C.
as §3, §4

A short description of series [3]: Hot water 70° C. fastness ISO 105-E08, staining of adjacent fabric. Conditions: wool gabardine dyed per Use Example C to 3×1/1 standard depth=2.25%, Grey Scale staining ISO 105-A03.
From the text: as §3, §4
(§5) A wool gabardine was dyed according to Use Example C (see below) to 3×1/1 standard depth=2.25% and the following tests have been performed:
the test specimen and adjacent fabrics were rolled tightly round a glass rod, a yarn was loosely wound over them and treat for 30 min at 70° C. in slightly acid water (pH 6 with acetic acid), liquor ratio 30:1. The test specimen was removed from glass rod, squeezed and was hung without rinsing to dry in warm air at max. 60° C. Assessment: Adjacent fabric: Staining according to ISO 105-A03 (see above)

Series [4] is described as follows: Milling alkaline fastness ISO 105-E12, staining of adjacent fabric. Conditions: wool gabardine dyed to 3×1/1 standard depth=2.25%, Grey Scale staining ISO 105-A03.
From the text: as §3, §4, §5
Milling Alkaline, ISO 105-E12
the test specimen and adjacent fabrics with 50 stainless steel balls were placed in a steel beaker (550 ml volume). Milling solution (50 g/l soap and 10 g/l anhydrous sodium carbonate) was added at a liquor ratio 3:1 and treated for 2 h at 40° C. in the Launder-Ometer. Then liquor ratio of 100:1 was adjusted with 40° C. warm demineralized water and treated for another 10 min. The test specimen were rinsed in cold demineralized water and then in cold running tapwater for 10 min, squeezed and hung to dry in warm air at max. 60° C. Assessment: Adjacent fabric: Staining according to ISO 105-A03 (see above)

As for `Cc1cc(OS(=O)(=O)c2ccc(C(C)(C)C)cc2)ccc1/N=N/c1ccc(Nc2ccc(S(=O)(=O)O)cc2[N+](=O)[O-])cc1` [Example 1], the “rating of PA 66 (mostly stained adjacent fabric), Perspiration ISO105-E04” value in series [1] is listed as 3.5. Further, in series [2], the “rating of PA 66 (mostly stained adjacent fabric), Domestic laundering ISO 105-C06/B2S, 50° C.” value stood at 2.7 and the “rating of PA 66 (mostly stained adjacent fabric), Domestic laundering ISO 105-C06/B2S, 60° C.” value came to 1.6. Also, in series [3], the “rating of mostly stained adjacent fabric, Hot water 70° C., ISO 105-E08” value is listed as 3.8^1). Moreover, the “rating of mostly stained adjacent fabric, Milling alkaline, ISO 105-E12” value in series [4] is 3.4^1).

Consider `Cc1ccc(S(=O)(=O)Oc2ccc(/N=N/c3ccc(Nc4ccc(S(=O)(=O)O)cc4[N+](=O)[O-])cc3)c(C)c2)cc1` [reference compound], for which the “rating of PA 66 (mostly stained adjacent fabric), Perspiration ISO105-E04” value in series [1] is reported as 2.8. For the same compound, in series [2], the “rating of PA 66 (mostly stained adjacent fabric), Domestic laundering ISO 105-C06/B2S, 50° C.” value is 2.0 and the “rating of PA 66 (mostly stained adjacent fabric), Domestic laundering ISO 105-C06/B2S, 60° C.” value is recorded as 1.2. The “rating of mostly stained adjacent fabric, Hot water 70° C., ISO 105-E08” value in series [3] is on record as 2.6^1). Moreover, the “rating of mostly stained adjacent fabric, Milling alkaline, ISO 105-E12” value in series [4] was 2.2^1).
